At least one structure is not confirmed: it was looked up by name or label, or the drawing left a doubt.
Test system: Intra Cellular Adhesion Molecule 1 expression (ICAM-1)
Test: ICAM-1 ELISA on cell lysate of TNF alpha-treated Huvec cells
Format: cell-based, Human
Details: 10 ng/ml TNF alpha, 24 hours, FIG. 1

SMILES: CC/C=C\C/C=C\C/C=C\C/C=C\C/C=C\C/C=C\CCC(=O)O [DHA, docosahexaenoic acid]
- inhibition of ICAM-1: dose response inhibition

Reference: US8987329B2, “Oral composition comprising a polyunsaturated fatty acid and salicylic acid for obtaining an antiinflammatory effect in skin” (Conopco, Inc., priority 2006, dated 2015)
